Data from PubChem BioAssay (EPA / NIEHS).
Inconclusive means that the source gave no clear call. Such entries were picked first, then a sample of the others. A potency beside an inconclusive call is a rough fit, not a confirmed value. The source made the active and inactive calls. The calls were made as follows: active = hit-call score of the fitted dose curve at least 0.9, where 1 is the maximum; inconclusive = response in the unintended direction; inactive = score below 0.9.

By UniProt entry, the sequences of proteins in these tests, tags left out. Where a name states a change or a piece, a line headed by the entry shows the natural chain unless it says otherwise.
UniProt P10275: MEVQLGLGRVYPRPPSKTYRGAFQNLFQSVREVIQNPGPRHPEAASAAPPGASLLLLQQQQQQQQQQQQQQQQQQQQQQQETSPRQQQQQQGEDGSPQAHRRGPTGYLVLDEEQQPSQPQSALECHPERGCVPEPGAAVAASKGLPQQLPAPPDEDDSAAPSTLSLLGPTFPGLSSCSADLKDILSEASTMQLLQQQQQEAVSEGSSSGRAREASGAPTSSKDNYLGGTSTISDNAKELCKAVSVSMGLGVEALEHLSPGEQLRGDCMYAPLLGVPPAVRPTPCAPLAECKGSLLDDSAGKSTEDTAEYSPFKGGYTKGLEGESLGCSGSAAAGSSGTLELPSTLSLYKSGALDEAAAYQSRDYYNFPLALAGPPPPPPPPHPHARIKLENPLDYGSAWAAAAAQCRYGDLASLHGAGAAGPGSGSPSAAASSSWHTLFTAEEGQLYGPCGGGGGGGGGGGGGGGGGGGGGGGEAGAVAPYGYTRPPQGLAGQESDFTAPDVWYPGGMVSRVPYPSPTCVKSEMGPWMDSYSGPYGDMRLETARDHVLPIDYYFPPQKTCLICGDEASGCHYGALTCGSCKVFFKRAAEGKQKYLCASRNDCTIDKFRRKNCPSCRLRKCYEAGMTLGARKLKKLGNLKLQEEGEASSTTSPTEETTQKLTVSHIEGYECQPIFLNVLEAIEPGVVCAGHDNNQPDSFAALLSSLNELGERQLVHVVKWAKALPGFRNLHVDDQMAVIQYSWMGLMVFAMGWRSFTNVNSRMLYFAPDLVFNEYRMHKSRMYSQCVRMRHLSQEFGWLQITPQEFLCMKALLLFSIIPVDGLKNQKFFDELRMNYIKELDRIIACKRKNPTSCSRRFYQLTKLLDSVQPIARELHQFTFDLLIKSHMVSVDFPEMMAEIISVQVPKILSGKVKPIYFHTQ

tested on: not listed separately; assay: ACEA_ER_AUC_viability: ACEA Biosciences xCELLigence Real-Time Cell Analysis on Estrogen Receptor Agonism for Viability (AID 2283782);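 also: continuous compound exposure with impedance area under curve over 80 h; hit means loss of impedance signal meaning reduced cell growth or viability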
Outline: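 T-47D human breast cells in phenol red-free RPMI1640 with 10% charcoal-stripped FBS were dosed with an 8-point 1:4 dilution series from 100 uM top final concentration, in duplicate. Impedance-based growth was followed for 80 h; AUC analysed versus DMSO.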

Structure (SMILES)	AC50	outcome
Oc1cccc2ccccc12	inconclusive: 50 µM	
O=C(O)c1cccnc1	inconclusive: 0.16 µM	
Nc1ccccc1N		inactive
NC(=O)NO	inconclusive: 50 µM	
Cc1oc(-c2ccccc2)nc1CCOc1cccc2c1ccn2CCC(=O)O		inactive
O=C1CCCCCCCCCCCC(=O)OCCO1	active: 71.8 µM	
O=C(OCCOCCOC(=O)c1ccccc1)c1ccccc1	inconclusive: 0.0896 µM	
C#CCOC(=O)[C@@H](C)Oc1ccc(Oc2ncc(Cl)cc2F)cc1	inconclusive: 0.0221 µM	
CN(C)C=O	inconclusive: 50 µM	
O=C1CCC(N2C(=O)c3ccccc3C2=O)C(=O)N1 (centres undefined)		inactive
CCCCN(CCO)CCO	inconclusive: 0.0444 µM	
CCN(CC)CCOC(=O)c1ccc(N)cc1	inconclusive: 43.2 µM	

Looked up above:
Entry for `O=C1CCC(N2C(=O)c3ccccc3C2=O)C(=O)N1` (centres undefined) under outcome: inactive
Entry for `NC(=O)NO` under AC50: inconclusive: 50 µM
Entry for `Oc1cccc2ccccc12` under AC50: inconclusive: 50 µM

molecular target: AR (gene 367) (UniProt P10275); assay: ACEA_AR_agonist_80hr: ACEA Biosciences xCELLigence Real-Time Cell Analysis on Androgen Receptor Agonism for Proliferation (AID 2283783);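 also: hits increase impedance growth signal above DMSO baseline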
Outline: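 22Rv1 human prostate cancer cells were seeded after preconditioning in assay medium and monitored overnight, then dosed in an eight-point 1:4 dilution series from 100 uM (≤0.5% DMSO). Impedance-based growth was read at 80 h, gain-of-signal versus DMSO.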

Structure (SMILES)	AC50	outcome
C=CCCCCCCCCCCCC	inconclusive: 50 µM	
Cc1ccc(O)cc1	inconclusive: 14 µM	
CC(=O)N(C)C	inconclusive: 1.38 µM	
Cc1cc(F)ccc1-c1cc(N2CC[C@@H](O)[C@H]2CO)ncc1N(C)C(=O)C(C)(C)c1cc(C(F)(F)F)cc(C(F)(F)F)c1	inconclusive: 40.8 µM	
C1N2CN3CN1CN(C2)C3		inactive
CCc1ccc(O)cc1	inconclusive: 16.8 µM	
CCSC(=O)N(CC(C)C)CC(C)C	inconclusive: 50 µM	
O=C(O)c1cccc(N(Cc2cccnc2)c2ccc(OC(F)F)c(OC(F)F)c2)c1	active: 10.5 µM	
Nc1ccc(N)c2c1C(=O)c1ccccc1C2=O	inconclusive: 0.213 µM	
NCCOCCOCCN	inconclusive: 50 µM	
NC(=O)N1C(=O)C(C(=O)c2cc(Cl)cs2)c2cc(F)c(Cl)cc21 (centres undefined)	inconclusive: 0.0713 µM	
CC1CCC(C(C)C)C(O)C1 (centres undefined)		inactive
O=C(NS(=O)(=O)/C=C/c1cccs1)c1ccc(F)cc1Br	inconclusive: 50 µM	
Cc1cc(C)c(S(=O)(=O)O)cc1N=Nc1cc(S(=O)(=O)O)c2ccccc2c1O		inactive
CCCCCCCCCCCCCC(=O)OCC(O)CO (centres undefined)	inconclusive: 16.6 µM	
CCCCCCCCCC(C)=O	inconclusive: 0.577 µM	
CC(O)COc1ccccc1 (centres undefined)	inconclusive: 0.7 µM	
